Assay results taken from the supplement of paper PMC5949888.
Most values lie at the floor of the assay. Slopes are relative: functional sequences can read slightly below zero.

tested on: Saccharomyces cerevisiae PS128 hsf1 delta, HSF1(1-493) fusion; test: growth estimate (transactivation domain function in HSF1 fusion, heat-shock survival) (a.u. (slope of normalised read count over time)); higher = stronger growth at 37°C, i.e. more transactivation activity; conditions: library: random library

Row | Substance | growth estimate
1 | WWREGQLPWCLECSPGQARR | < -0.25
2 | WWSPD | < -0.25
3 | WYAGSVCIGLGHRGGKIL | < -0.25
4 | WYGEDPGRPEFLSLDQVSST | < -0.25
5 | WYGF | < -0.25
6 | WYKPDVQV | < -0.25
7 | WYLCSQQGRKDNGSFCANYE | < -0.25
8 | WYLSDPVWTSS | -0.205
9 | WYRCHARLRISVCDLYKMCC | -0.0195
10 | WYSRGRNWLLDHCNRCPVSA | < -0.25
11 | WYSSPEYSELDYIST | < -0.25
12 | YAANSRPDVYT | < -0.25
13 | YACLGSN | < -0.25
14 | YAGAKL | < -0.25
15 | YAGGLAYLLMRAL | < -0.25
16 | YAISHGRTSAVLPGVLIETS | < -0.25
17 | YAISSSGPSGVVDIS | < -0.25
18 | YAKHAVTKPLCSP | < -0.25
19 | YALVRGLVTER | < -0.25
20 | YALW | < -0.25
21 | YAPDELPSLPDSITVESFPT | < -0.25
22 | YARGLDERP | < -0.25
23 | YAS | -0.243
24 | YASGWIPDGMRESLSVFAVC | < -0.25
25 | YATRLVLSKGG | < -0.25
26 | YATWKGVTFETAGR | < -0.25

Row | Substance | growth estimate
27 | YAVERRGLIVRPLIRRRS | < -0.25
28 | YAVM | < -0.25
29 | YAVSGVRTVGLGLFSGRFRV | < -0.25
30 | YAYFGLTPATKETFRISEIN | < -0.25
31 | YCDPNVREVD | < -0.25
32 | YCKI | < -0.25
33 | YCLFSVLGPGRELGDR | < -0.25
34 | YCPKVCHAALSLRAHRSTKA | < -0.25
35 | YCQWLA | < -0.25
36 | YCRFGRGEIDLLFFDSLHGS | -0.194
37 | YCRNTALRSQ | < -0.25
38 | YCV | < -0.25
39 | YCWSFFLVSVANRGKPQLSF | -0.246
40 | YDCHFRSTCEPVAKVYRRRD | < -0.25
41 | YDFPNEIMMCPTIPLRKRWL | < -0.25
42 | YDGGQSGLIKAEANDTGLHY | < -0.25
43 | YDGLPAQPSKYIYPKRSL | < -0.25
44 | YDGTQSV | < -0.25
45 | YDLQMSSMQPVWWTRTLVGL | < -0.25
46 | YDLS | < -0.25
47 | YDPSKA | < -0.25
48 | YDRHFSGK | < -0.25
49 | YDRNGHHVQGVRRWSSVTEP | < -0.25
50 | YDSCSAGISRYKGRGRATV | < -0.25
51 | YDSSNYECG | < -0.25
52 | YDTHVGVPPRAASCCDIEAL | < -0.25

Shown in markdown: entries from further up.

| Row | Substance | growth estimate |
| --- | --- | --- |
| 21 | YAPDELPSLPDSITVESFPT | < -0.25 |
| 22 | YARGLDERP | < -0.25 |
| 23 | YAS | -0.243 |
| 24 | YASGWIPDGMRESLSVFAVC | < -0.25 |
| 25 | YATRLVLSKGG | < -0.25 |
| 26 | YATWKGVTFETAGR | < -0.25 |
| 27 | YAVERRGLIVRPLIRRRS | < -0.25 |
| 28 | YAVM | < -0.25 |
| 29 | YAVSGVRTVGLGLFSGRFRV | < -0.25 |
| 30 | YAYFGLTPATKETFRISEIN | < -0.25 |
| 31 | YCDPNVREVD | < -0.25 |
| 32 | YCKI | < -0.25 |
| 33 | YCLFSVLGPGRELGDR | < -0.25 |
| 34 | YCPKVCHAALSLRAHRSTKA | < -0.25 |
| 35 | YCQWLA | < -0.25 |
| 36 | YCRFGRGEIDLLFFDSLHGS | -0.194 |
| 37 | YCRNTALRSQ | < -0.25 |
| 38 | YCV | < -0.25 |
| 39 | YCWSFFLVSVANRGKPQLSF | -0.246 |
| 40 | YDCHFRSTCEPVAKVYRRRD | < -0.25 |
| 41 | YDFPNEIMMCPTIPLRKRWL | < -0.25 |
| 42 | YDGGQSGLIKAEANDTGLHY | < -0.25 |
| 43 | YDGLPAQPSKYIYPKRSL | < -0.25 |
| 44 | YDGTQSV | < -0.25 |
| 45 | YDLQMSSMQPVWWTRTLVGL | < -0.25 |
| 46 | YDLS | < -0.25 |
| 47 | YDPSKA | < -0.25 |
| 48 | YDRHFSGK | < -0.25 |
| 49 | YDRNGHHVQGVRRWSSVTEP | < -0.25 |
| 50 | YDSCSAGISRYKGRGRATV | < -0.25 |
| 51 | YDSSNYECG | < -0.25 |

Remaining list, next part.

Row | Substance | growth estimate
53 | YDVRCRSAIMGPC | -0.246
54 | YDWCALQT | 0.207
55 | YEAPNSSSTSISRGCVINTG | < -0.25
56 | YECVPSKWEGVVRPSRVVLA | < -0.25
57 | YEGADGISCTNDPWNICGWW | 2.55
58 | YEGGGGGTRDSAPWSQVQDA | < -0.25
59 | YEGIC | < -0.25
60 | YEIGCRGVPGRVLRYYDGAG | < -0.25
61 | YELAERVARKKPREHRVCLL | < -0.25
62 | YESVGL | < -0.25
63 | YETYAT | < -0.25
64 | YEVCLI | < -0.25
65 | YFIVCVDTAYCYHCDSCAYN | < -0.25
66 | YFPAYNLTIRKGGPYLFLFG | < -0.25
67 | YFR | < -0.25
68 | YFTRGSRPLKTLYASPWI | < -0.25
69 | YGAVPPHTTVQWRVTKEGRW | < -0.25
70 | YGCAARVRLFA | < -0.25
71 | YGCEAS | < -0.25
72 | YGDNLSQVAVGSYPLWLLWG | < -0.25
73 | YGDWGSGNRVTYGYTFSV | < -0.25
74 | YGGHSTN | < -0.25
75 | YGHE | < -0.25
76 | YGIKTYSMSFLALERQKAPP | < -0.25
77 | YGISGHVRHNLLNALFQHRH | < -0.25
78 | YGITVPAATRGLEFNQYQY | < -0.25

Row | Substance | growth estimate
79 | YGKNLVRDLIIHLFQSV | < -0.25
80 | YGLF | < -0.25
81 | YGLQDYSWASTRSSA | < -0.25
82 | YGLRLTILCRQLGVSGPVDG | < -0.25
83 | YGLVLRTQLRHQT | < -0.25
84 | YGMPTVLMCTNGPIRSCMKP | < -0.25
85 | YGNWDCGQ | < -0.25
86 | YGPYTVLLLYPVKRLRESMG | < -0.25
87 | YGQSPLTN | < -0.25
88 | YGRGFKC | < -0.25
89 | YGRHQLIVSGSPKQSGAPFV | < -0.25
90 | YGRPRIRVGRRKHRLAASAA | < -0.25
91 | YGRSIAKFPHATQTVSVGGI | < -0.25
92 | YGRVITWQA | < -0.25
93 | YGS | < -0.25
94 | YGSGSQVGIRRTALPAEIFA | < -0.25
95 | YGSIKAF | < -0.25
96 | YGSRMVFQVARLGRSHMQLR | < -0.25
97 | YGTEACRRRE | < -0.25
98 | YGTSQLCFKVVRINGILLAR | < -0.25
99 | YGVLSKWARNLVVELGTLLR | < -0.25
100 | YGWINRGASRQVATARGIPR | < -0.25
101 | YGWSGCIL | < -0.25
